Results on one compound are retold here after patent US12390461B2, “Modulators of RAR-related orphan receptors (RORs)” (11949098 CANADA INC., priority 2018, dated 2025).

The test concerns Th17 polarization of human peripheral blood mononuclear cells. The test can be described thus: Th17 polarization assay (IL-17A positive cells by flow cytometry). It is filed as cell-based. To be noted: PBMC, 10 nM compound, 48 hours, triplicates, average of 50% over the listed compounds, p<0.05, read-out: inhibition of the polarization of Th17 cells (percentage of IL17A positive cells relative to total CD4 T cells). The text has this:
This assay measures the phenotypic effects of the compounds on the production of interleukin 17A (IL-17A). IL-17A genes are regulated by ROR response elements (ROREs). Compounds that bind to ROR (LBD) can inhibit the binding of RORγ to ROREs DNA site. Compounds can also reduce the effect of the binding which is enhanced by the binding of the co-activator protein.
Peripheral blood mononuclear cells were isolated by density gradient centrifugation. The principle of this method is that components of the blood have different densities and can be separated according to their relative density. […] This medium is denser than lymphocytes, monocytes, and platelets and they remain about it, but less dense than granulocytes and erythrocytes, which will drop below it. […] Four layers were form, each containing different cell types—the uppermost layer contain containing plasma was removed by pipetting. PBMCs layer and is a characteristically white and cloudy “blanket” was gently removed using a 10 ml pipette and added to warm medium or PBS (1:3) to wash off any remaining platelets and centrifuged at 400×g for 10 minutes. The pelleted cells were counted, and the percentage viability estimated using Trypan blue staining. Cells were frozen for long-term storage. […]
On the technique in general: In flow cytometry, cells or beads pass a laser one at a time.

As a reminder, the inhibition is the relative decrease from the control value, in per cent. On to `O=C(Nc1sc2c(c1C(=O)N1CCN(Cc3ccccc3)CC1)CCCC2)c1ccccc1F` [Compound 1, N-(3-(4-benzylpiperazine-1-carbonyl)-4,5,6,7-tetrahydro-benzo[b]thiophen-2-yl)-2-fluorobenzamide], for which the inhibition at 0.01 µM is 30 to 70%.
